Measurements reported in PubChem BioAssay AID1159578 (Peter MacCallum Cancer Centre, 2015).
Shown is one part, drawn at random, of about 18,000 deposited reagents. About 1,030 of all reagents (5.7%) were called active. 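Inactive calls also include pools with fewer than 3300 nuclei, whose migration was not assessed.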 The raw values are shown without normalisation. The numbers tell different reagents against one gene apart. Reagent sequences are not shown.

Assay: 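Knock-downs that alter how fast lymphatic endothelial cells migrate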 (primary screen)
Cell system: human lymphatic endothelial cells
Reagent: siRNA pool against human genes, 40 nM
Duration: 48 h after transfection
Read-out: 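High-content imaging of dye-stained cells in a scratch assay measures filled wound area and nuclei per well; duplicate means given as ratio to mock and robust z-score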
Scale: migration robust z-score: higher = faster migration into the scratch; migration relative to mock: higher = more scratch area covered than mock; nuclei per well: higher = more cells in the well
Hit rule: 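Migration changed when robust z exceeds 2 or falls below -2 and mean nuclei number is at least 3300; otherwise not called changed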
Meaning of the calls: active = migration changed; inactive = no migration change, or too few cells

no.	Target gene	pool no.	migration robust z-score	migration class with cell-count check	migration relative to mock	nuclei per well, duplicate mean	call
1	MAD2L1	1	-1.01	migration z between -2 and 2; enough cells	0.61	5040	inactive
2	U2SURP	1	0.15	migration z between -2 and 2; enough cells	0.92	7538	inactive
3	SEMA4D	1	-0.13	migration z between -2 and 2; enough cells	0.85	4328	inactive
4	SEMA4D	2	0.23	migration z between -2 and 2; enough cells	0.94	5826	inactive
5	ASPSCR1	1	0.3	migration z between -2 and 2; enough cells	0.97	6003	inactive
6	CLEC12A	1	-1.87	migration z between -2 and 2; enough cells	0.39	3976	inactive
7	SSC4D	1	0.6	migration z between -2 and 2; enough cells	0.92	5012	inactive
8	UGT3A2	1	0.73	migration z between -2 and 2; enough cells	0.94	5233	inactive
9	ABCF2	1	1.77	migration z between -2 and 2; enough cells	1.15	6109	inactive
10	TEX101	1	-0.64	migration z between -2 and 2; enough cells	0.72	5962	inactive
11	PRIMPOL	1	0.01	migration z between -2 and 2; enough cells	0.88	5949	inactive
12	CATSPERG	1	0.09	migration z between -2 and 2; enough cells	0.9	4732	inactive
13	SUSD3	1	-0.66	migration z between -2 and 2; enough cells	0.72	5532	inactive
14	PUS3	1	1.58	migration z between -2 and 2; enough cells	1.11	6176	inactive
15	ELL3	1	2.37	migration z above 2; enough cells	1.5	6720	active
16	SF3B2	1	-2.04	migration z below -2; enough cells	0.36	3972	active
17	ARSK	1	-0.78	migration z between -2 and 2; enough cells	0.66	4901	inactive
18	CKB	1	-4.12	under 3300 nuclei; migration not judged	0.01	3072	inactive
19	GABBR1	1	0.7	migration z between -2 and 2; enough cells	0.94	6942	inactive
20	HOMER2	1	0.55	migration z between -2 and 2; enough cells	1.02	5678	inactive
21	CD24	1	-5.06	under 3300 nuclei; migration not judged	-0.42	2200	inactive
22	AURKC	1	-1.46	migration z between -2 and 2; enough cells	0.52	4634	inactive
23	ZNF473	1	-0.73	migration z between -2 and 2; enough cells	0.7	5620	inactive
24	POLH	1	-3.55	migration z below -2; enough cells	0.12	4000	active
25	CXorf66	1	-0.62	migration z between -2 and 2; enough cells	0.72	6241	inactive
26	ATG101	1	1.72	migration z between -2 and 2; enough cells	1.33	5006	inactive
27	KCNMB2	1	-0.16	migration z between -2 and 2; enough cells	0.78	4798	inactive
28	NOC4L	1	1.73	migration z between -2 and 2; enough cells	1.34	5378	inactive
29	GPRC6A	1	-1.02	migration z between -2 and 2; enough cells	0.61	4554	inactive
30	KIAA1755	1	-0.52	migration z between -2 and 2; enough cells	0.75	6367	inactive
31	NOVA2	1	-1.36	migration z between -2 and 2; enough cells	0.53	5831	inactive
32	XRCC1	1	-0.57	migration z between -2 and 2; enough cells	0.7	5812	inactive
33	FAM120A	1	-0.3	migration z between -2 and 2; enough cells	0.8	5344	inactive
34	OPN4	1	0.68	migration z between -2 and 2; enough cells	0.94	5008	inactive
35	GSDME	1	-0.04	migration z between -2 and 2; enough cells	0.88	6905	inactive
36	DDX25	1	0.42	migration z between -2 and 2; enough cells	0.88	5792	inactive
37	GABRG2	1	0	migration z between -2 and 2; enough cells	0.8	4878	inactive
38	EPAS1	1	0.76	migration z between -2 and 2; enough cells	0.95	6354	inactive
39	TMEM229B	1	1.08	migration z between -2 and 2; enough cells	1.17	6577	inactive

Entries listed so far with an active call (3):
Target gene	pool no.	migration robust z-score	migration class with cell-count check	migration relative to mock	nuclei per well, duplicate mean	call
ELL3	1	2.37	migration z above 2; enough cells	1.5	6720	active
SF3B2	1	-2.04	migration z below -2; enough cells	0.36	3972	active
POLH	1	-3.55	migration z below -2; enough cells	0.12	4000	active
